Source: PMC6859552
No constants are given. Whether binding was seen depends on the method and setting. In cells and extracts the contact can be indirect. Some results given as binding are weak or reduced against the parent protein; the word gives no strength.

By UniProt entry, the sequences of proteins in these tests, tags left out.
UniProt P13010: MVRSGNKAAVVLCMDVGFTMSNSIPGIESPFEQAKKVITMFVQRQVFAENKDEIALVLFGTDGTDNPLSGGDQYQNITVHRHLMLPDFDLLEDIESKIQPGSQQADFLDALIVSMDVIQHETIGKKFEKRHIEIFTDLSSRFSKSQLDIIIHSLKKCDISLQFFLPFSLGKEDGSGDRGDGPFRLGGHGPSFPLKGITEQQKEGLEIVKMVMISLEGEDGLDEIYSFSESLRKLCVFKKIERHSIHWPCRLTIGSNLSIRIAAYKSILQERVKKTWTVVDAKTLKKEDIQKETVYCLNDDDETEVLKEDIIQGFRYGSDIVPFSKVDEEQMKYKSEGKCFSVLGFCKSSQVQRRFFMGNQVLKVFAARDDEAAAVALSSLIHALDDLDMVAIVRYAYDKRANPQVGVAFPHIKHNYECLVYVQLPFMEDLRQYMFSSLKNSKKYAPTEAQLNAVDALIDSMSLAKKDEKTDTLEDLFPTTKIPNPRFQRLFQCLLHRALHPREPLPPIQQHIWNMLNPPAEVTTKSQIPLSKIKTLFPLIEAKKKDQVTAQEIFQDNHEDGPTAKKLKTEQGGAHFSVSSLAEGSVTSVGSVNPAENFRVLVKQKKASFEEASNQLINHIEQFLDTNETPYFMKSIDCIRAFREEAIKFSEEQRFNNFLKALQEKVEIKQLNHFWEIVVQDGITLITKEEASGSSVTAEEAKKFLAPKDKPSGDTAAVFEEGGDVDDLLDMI
UniProt Q16665: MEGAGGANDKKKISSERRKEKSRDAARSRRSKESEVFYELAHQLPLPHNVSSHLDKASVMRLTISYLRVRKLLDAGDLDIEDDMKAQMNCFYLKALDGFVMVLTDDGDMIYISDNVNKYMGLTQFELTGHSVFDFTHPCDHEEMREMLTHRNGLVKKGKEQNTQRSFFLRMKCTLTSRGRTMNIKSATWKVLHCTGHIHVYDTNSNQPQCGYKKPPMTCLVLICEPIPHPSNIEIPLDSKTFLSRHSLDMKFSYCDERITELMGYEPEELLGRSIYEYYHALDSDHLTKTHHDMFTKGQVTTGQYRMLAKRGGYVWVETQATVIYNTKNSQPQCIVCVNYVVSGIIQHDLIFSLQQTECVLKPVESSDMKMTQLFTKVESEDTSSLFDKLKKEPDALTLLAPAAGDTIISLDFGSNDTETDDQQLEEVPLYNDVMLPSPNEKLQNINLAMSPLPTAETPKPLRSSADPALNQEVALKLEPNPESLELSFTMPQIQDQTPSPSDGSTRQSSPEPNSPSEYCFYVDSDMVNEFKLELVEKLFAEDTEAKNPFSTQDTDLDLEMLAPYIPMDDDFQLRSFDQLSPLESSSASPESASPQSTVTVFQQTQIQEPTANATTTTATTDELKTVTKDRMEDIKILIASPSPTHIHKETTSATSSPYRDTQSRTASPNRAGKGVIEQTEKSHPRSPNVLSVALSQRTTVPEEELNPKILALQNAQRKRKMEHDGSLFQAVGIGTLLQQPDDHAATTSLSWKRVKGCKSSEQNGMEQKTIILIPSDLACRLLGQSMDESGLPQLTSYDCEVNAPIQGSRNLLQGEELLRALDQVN

Target: Flag-tagged Ku80 (UniProt P13010)
Assay: co-IP; protein extracts from A375 and MEWO cells stably overexpressing Flag-tagged Ku80, immunoprecipitated with Flag antibody, protein-A/G agarose beads, 4 °C overnight, washed with cold PBS, Western blot

For HIF1-α (from UniProt Q16665 1-826), the binding was “binds”.
